In patent US20160067208A1, “ADHESION PREVENTING AGENT” (FARNEX INCORPORATED, priority 2013, published 2016):

Test system: rat peritoneal section
Assay: Test of bioadhesive property (TLC analysis)
Design: key: N: not substantially detected; S: detected only in a small amount
Settings: 20 mg lipid on rat peritoneal section, liquid crystal gel formed with PBS (+), stirring 400rpm 1 hour at 37° C.

Row | Structure (SMILES) | TLC analysis (evaluation lipid detected in the aqueous solution)
1 | CC(C)=CCC/C(C)=C/CC/C(C)=C/CCC(C)=CCCC(=O)OCC(O)CO (racemic) [Example 4, mono-O-(5,9,13,17-tetramethyloctadeca-4,8,12,16-tetraenoyl)glycerol] | S
2 | CC(C)=CCC/C(C)=C/CCC(C)=CCCC(=O)OCC(O)CO (centres unmarked) [Example 1, mono-O-(5,9,13-trimethyltetradeca-4,8,12-trienoyl)glycerol] | S
3 | CC(C)=CCC/C(C)=C/CC/C(C)=C/CCC(C)=CCCC(=O)OCC(O)C(O)CO (centres unmarked) [Example 5, mono-O-(5,9,13,17-tetramethyloctadeca-4,8,12,16-tetraenoyl)erythritol] | N
4 | CC(C)CCCC(C)CCCC(C)CCCC(=O)OCC(O)CO (centres unmarked) [Example 8, mono-O-(5,9,13-trimethyltetradecanoyl)glycerol] | N
5 | CC(=CCCC(=O)OCC(O)CO)CCCC(C)CCCC(C)C (centres unmarked) [Example 13, mono-O-(5,9,13-trimethyltetradec-4-enoyl)glycerol] | N
6 | CC(=CCCC(=O)OCC(O)COCC(O)CO)CCCC(C)CCCC(C)CCCC(C)C (centres unmarked) [Example 14, mono-O-(5,9,13,17-tetramethyloctadec-4-enoyl)diglycerol] | N
7 | CC(C)CCCC(C)CCCC(C)CCCC(C)CCOC1OC[C@@H](O)C(O)C1O (stereo partly drawn) [Example 15, 1-O-(3,7,11,15-tetramethylhexadecyl)-β-D-xylopyranoside] | N
8 | CC(C)=CCC/C(C)=C/CC/C(C)=C/CCC(C)=CCOCC(O)C(O)CO (centres unmarked) [Example 45, mono-O-(3,7,11,15-tetramethylhexadeca-2,6,10,14-tetraenyl)erythritol] | S
9 | CC(C)=CCC/C(C)=C/CC/C(C)=C/CCC(C)=CCCCOCC(CO)(CO)CO [Example 50, mono-O-(5,9,13,17-tetramethyloctadeca-4,8,12,16-tetraenyl)pentaerythritol] | N
10 | CC(=CC(=O)OCC(O)CO)CCCC(C)CCCC(C)C (centres unmarked) [Example 54, mono-O-(3,7,11-trimethyldodec-2-enoyl)glycerol] | S
11 | CC(=CC(=O)OCC(CO)(CO)CO)CCCC(C)CCCC(C)CCCC(C)C (centres unmarked) [Example 55, mono-O-(3,7,11,15-tetramethylhexadec-2-enoyl)pentaerythritol] | N
12 | CC(=CCCCOCC(CO)(CO)CO)CCCC(C)CCCC(C)C (centres unmarked) [Example 56, mono-O-(5,9,13-trimethyltetradec-4-enyl)pentaerythritol] | N
13 | CC(=CCOC[C@H](O)[C@H](O)CO)CCCC(C)CCCC(C)CCCC(C)C (some centres unmarked) [Example 57, mono-O-(3,7,11,15-tetramethylhexadec-2-enyl)erythritol] | N
14 | CC(=CCCCOCC(O)CO)CCCC(C)CCCC(C)CCCC(C)C (centres unmarked) [Example 58, mono-O-(5,9,13,17-tetramethyloctadec-4-enyl)glycerol] | N
